# From the supplement of paper PMC9135407
# Values joined by “and” are separate entries in the source; they are usually repeats but may differ in a detail not shown here. Equal entries are not always repeated. Structures can show the parent of a compound that is named as a salt. ± gives the standard deviation of the averaged measurements. The list shows a part of the results. Part of the spread comes from offsets between plates or batches.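 Assay uses culture-activated primary human stellate myofibroblasts; lipid droplet recovery indicates inactivation. Measured: proportion of Hoechst-counted cells over a plate-specific Bodipy cutoff, duplicate wells, DMSO and nortriptyline as per-plate negative and positive controls. A hit scores, control-normalized, above the plate's top-tenth-percentile nortriptyline wells or ranks among its three best wells. Final well concentrations not reported.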
# Tested on: primary human hepatic stellate cells (donor 1)
# Experiment: percent Bodipy-positive cells; higher = more lipid droplet accumulation
# Conditions: 48 h
# [1] = library stock concentration: 3.33 mM
# [2] = library stock concentration: 10 mM
# [3] = library stock concentration: 13.2 mM
# [4] = library stock concentration: 80 uM
# [5] = library stock concentration: 400 uM
# [6] = library stock concentration: 2 mM
# [7] = library stock concentration: 1 mM
smiles,measurement,setting,value
OCCOCCN1CCN(C(c2ccccc2)c2ccc(Cl)cc2)CC1 (stereo unspecified) [Hydroxyzine 2HCl],percent Bodipy-positive cells,[1],25.3 ± 2%
same,percent Bodipy-positive cells,[2],73.8 ± 3.5%
COc1ccc(CNC(=O)Nc2ncc([N+](=O)[O-])s2)cc1,percent Bodipy-positive cells,[1],42.7 ± 12%
COc1ccc(CNC(=O)Nc2ncc([N+](=O)[O-])s2)cc1 [GSK-3b Inhibitor VIII],percent Bodipy-positive cells,[1],17.4 ± 2.6%
Cn1c2ccccc2c2c3c(c4c5ccccc5n(CCC#N)c4c21)CNC3=O,percent Bodipy-positive cells,[1],9.57 ± 0.43%
same,percent Bodipy-positive cells,[3],41.6 ± 6.1%
O=C(O)c1ccc2c3c1cccc3c(=O)n1c3ccccc3nc21,percent Bodipy-positive cells,[1],9.14 ± 1.9%
C=CC1=C(C(=O)O)N2C(=O)[C@@H](NC(=O)/C(=N\OCC(=O)O)c3csc(N)n3)[C@H]2SC1,percent Bodipy-positive cells,[2],11.5 ± 4.2%
C=CC1=C(C(=O)O)N2C(=O)[C@@H](NC(=O)/C(=N\OCC(=O)O)c3csc(N)n3)[C@H]2SC1 [Cefixime],percent Bodipy-positive cells,,27.3 ± 3.4%
COc1ccc(NS(=O)(=O)c2sc3ccc(Cl)cc3c2C)cc1N1CCNCC1,percent Bodipy-positive cells,[2],96.3 ± 2%
O=C(NS(=O)(=O)c1ccc(Br)s1)c1ccc(Cl)cc1Cl [Tasisulam],percent Bodipy-positive cells,[1],27.3 ± 1.1%
same,percent Bodipy-positive cells,[2],29.3 ± 1%
O=C1NCN(c2ccccc2)C12CCN(CCCC(c1ccc(F)cc1)c1ccc(F)cc1)CC2 [Fluspirilene],percent Bodipy-positive cells,[2],97.47 ± 0.8%
Nc1nc(SCc2ccc([N+](=O)[O-])cc2)c2ncn([C@@H]3O[C@H](CO)[C@H](O)C3O)c2n1 (stereo partly drawn) [S-(4-Nitrobenzyl)-6-thioguanosine],percent Bodipy-positive cells,[2],65.1 ± 2.6%
O=S(=O)(O)CCCS(=O)(=O)O,percent Bodipy-positive cells,[2],41.2 ± 9.8%
COc1cc(OC)c(C(=O)CCCCN2CCC3(CC2)NC(=O)NC3=O)cc1NS(=O)(=O)c1ccc(C(F)(F)F)cc1.Cl,percent Bodipy-positive cells,[2],52.9 ± 2.5%
NC(=S)N/N=C/c1ncccc1N [Triapine],percent Bodipy-positive cells,[1],41.5 ± 2.4%
same,percent Bodipy-positive cells,[2],38.6 ± 1.3%
Nc1cccc2c1CN(C1CCC(=O)NC1=O)C2=O (stereo unspecified) [Lenalidomide],percent Bodipy-positive cells,[4],12.2 ± 1.1%
same,percent Bodipy-positive cells,[5],7.43 ± 2.1%
same,percent Bodipy-positive cells,[6],12.7 ± 4.3%
same,percent Bodipy-positive cells,[2],8.71 ± 3.9%
Nc1cccc2c1CN(C1CCC(=O)NC1=O)C2=O (stereo unspecified) [Lenalidomide (CC-5013)],percent Bodipy-positive cells,[1],7.82 ± 0.59%
same,percent Bodipy-positive cells,[2],13.5 ± 3.9%
O=C1N[C@@H]2[C@@H](O)[C@@H](O)[C@H](O)[C@@H](CO)N2C1=O [Kifunensine],percent Bodipy-positive cells,[7],20.5 ± 8.2%
O=C(O)CCC/C=C\C[C@H]1[C@@H](O)CC(=O)[C@@H]1/C=C/[C@@H](O)CCc1ccccc1 [17-phenyl trinor Prostaglandin D2],percent Bodipy-positive cells,[7],13.1 ± 3.4%
CC(=O)Oc1c(C)c(C)c2c(c1C)CCC(C)(CCCC(C)CCCC(C)CCCC(C)C)O2 (stereo not drawn) [Alpha-tochopheryl acetate],percent Bodipy-positive cells,[2],45.4 ± 6.5%
CC(=O)Nc1ccc(O)cc1 [Acetaminophen],percent Bodipy-positive cells,,10.7 ± 1.4%
same,percent Bodipy-positive cells,[2],9.96% and 8.19%
same,percent Bodipy-positive cells,[3],3.13 ± 1.8%
CCCCC[C@H](O)/C=C/[C@H]1C(=O)C[C@H](O)[C@@H]1C/C=C\CCCC(=O)O [Prostaglandin  D2],percent Bodipy-positive cells,[7],14.4 ± 12%
CCCCC[C@H](O)/C=C/[C@H]1C(=O)C[C@H](O)[C@@H]1C/C=C\CCCC(=O)O [Prostaglandin D2],percent Bodipy-positive cells,[7],9.69 ± 1.9%
CC(C)CCC[C@@H](C)CCC[C@@H](C)CCCC(C)CC(=O)O (stereo partly specified) [Phytanic Acid],percent Bodipy-positive cells,[7],14.6 ± 4%
CCCCC(CC)CN=C(N)N=C(N)NCCCCCCNC(N)=NC(N)=NCC(CC)CCCC (stereo unspecified) [Alexidine hydrochloride],percent Bodipy-positive cells,[2],93.3 ± 6%
O=C(Nc1ccc(-c2ccnc(Nc3ccc(N4CCOCC4)cc3)n2)cc1)C1CCCN1 (stereo unspecified),percent Bodipy-positive cells,[4],6.11 ± 3.9%
same,percent Bodipy-positive cells,[5],4.71 ± 2%
same,percent Bodipy-positive cells,[6],10.5 ± 1.1%
same,percent Bodipy-positive cells,[1],23.3 ± 9.7%
same,percent Bodipy-positive cells,[2],78.8 ± 3.9%
COC(=O)C(C)c1ccc(C(=O)c2cccs2)cc1 (stereo unspecified) [Suprofen methyl ester],percent Bodipy-positive cells,[2],31.6 ± 11%
COc1ccc2[nH]c([S+]([O-])Cc3ncc(C)c(OC)c3C)nc2c1 (stereo unspecified),percent Bodipy-positive cells,[2],8.44% and 3.6%
COc1ccc2[nH]c([S+]([O-])Cc3ncc(C)c(OC)c3C)nc2c1 (stereo unspecified) [Omeprazole],percent Bodipy-positive cells,,27.8 ± 3.6%
same,percent Bodipy-positive cells,[1],6.43 ± 0.91%
same,percent Bodipy-positive cells,library stock concentration: 5.8 mM,5.89 ± 2.9%
same,percent Bodipy-positive cells,[2],19.5% and 8.94%
CN(C)[C@@H]1C(O)=C(C(N)=O)C(=O)[C@@]2(O)C(O)=C3C(=O)c4c(O)ccc(Cl)c4[C@@](C)(O)[C@H]3C[C@@H]12 [Chlortetracycline hydrochloride],percent Bodipy-positive cells,,24.6 ± 4.1%
same,percent Bodipy-positive cells,[2],10.3 ± 3.6%
O=C1OC2(c3ccc(O)cc3Oc3cc(O)ccc32)c2ccccc21 [Fluorescein],percent Bodipy-positive cells,library stock concentration: 6 mM,0%
O=Cc1cccc2[nH]ccc12 [4-formyl Indole],percent Bodipy-positive cells,[7],13.9 ± 8.8%
CC(=O)N(CC(C)C(=O)O)c1c(I)cc(I)c(N)c1I (stereo unspecified) [Iocetamic acid],percent Bodipy-positive cells,,5.94 ± 1.6%
CC(=O)OCC1=C(C(=O)O)N2C(=O)[C@@H](NC(=O)CSc3ccncc3)[C@H]2SC1 [Cephapirin sodium],percent Bodipy-positive cells,library stock concentration: 4.5 mM,2.66 ± 0.39%
same,percent Bodipy-positive cells,[2],19.6 ± 4.2%
CCCCCCCCc1ccc(CCC(N)(CO)CO)cc1 [Fingolimod (FTY720) HCl],percent Bodipy-positive cells,[2],100%
CCCCCCCCc1ccc(CCC(N)(CO)CO)cc1,percent Bodipy-positive cells,[7],51.2 ± 7%
CCCCCCCC/C=C\CCCCCCCC(=O)NCCc1ccc(O)c(O)c1 [N-Oleoyl Dopamine],percent Bodipy-positive cells,[7],8.71 ± 1.3%
CCCCCCCC/C=C\CCCCCCCC(=O)NCCc1ccc(O)c(O)c1 [N-Oleoyldopamine],percent Bodipy-positive cells,[2],17.9 ± 2%
CC(C)[C@H](NC(=O)[C@H](CC(=O)O)NC(=O)[C@H](CCCCN)NC(=O)[C@@H](N)CCCN=C(N)N)C(=O)N[C@@H](Cc1ccc(O)cc1)C(=O)O,percent Bodipy-positive cells,[2],35.1 ± 3.9%
"CCCCC[C@H](O)/C=C/[C@H]1[C@H](O)CC(=O)[C@@H]1CCCCCCCCC(=O)O [1a,1b-dihomo Prostaglandin E1]",percent Bodipy-positive cells,[7],15.5 ± 2.8%
C[C@]12CC[C@@H]3c4ccc(O)cc4CC[C@H]3[C@@H]1CCC2=O [Estrone],percent Bodipy-positive cells,,10.6 ± 2.7%
same,percent Bodipy-positive cells,[1],11.4 ± 4.7%
c1cc(OCCN2CCCCC2)cc(-c2n[nH]c3ccc(-c4ncn[nH]4)cc23)c1,percent Bodipy-positive cells,[2],98.7 ± 1.1%
Nc1ncnc2c1c(-c1cccc(OCc3ccccc3)c1)cn2C1CC(CN2CCC2)C1 (stereo unspecified),percent Bodipy-positive cells,[4],43.8 ± 17%
same,percent Bodipy-positive cells,[5],45.2 ± 4.7%
same,percent Bodipy-positive cells,[6],63.7 ± 2.4%
same,percent Bodipy-positive cells,[2],99.57 ± 0.61%
O=c1c2sc(-c3ccc(F)cc3)cc2ncn1Cc1nc2ccccc2[nH]1,percent Bodipy-positive cells,[2],78.2 ± 1.8%

# In another format: entries from further up.
smiles	measurement	setting	value
COc1ccc(CNC(=O)Nc2ncc([N+](=O)[O-])s2)cc1 [GSK-3b Inhibitor VIII]	percent Bodipy-positive cells	[1]	17.4 ± 2.6%
C=CC1=C(C(=O)O)N2C(=O)[C@@H](NC(=O)/C(=N\OCC(=O)O)c3csc(N)n3)[C@H]2SC1 [Cefixime]	percent Bodipy-positive cells		27.3 ± 3.4%
Nc1cccc2c1CN(C1CCC(=O)NC1=O)C2=O (stereo unspecified) [Lenalidomide (CC-5013)]	percent Bodipy-positive cells	[1]	7.82 ± 0.59%
O=C(Nc1ccc(-c2ccnc(Nc3ccc(N4CCOCC4)cc3)n2)cc1)C1CCCN1 (stereo unspecified)	percent Bodipy-positive cells	[4]	6.11 ± 3.9%
same	percent Bodipy-positive cells	[2]	78.8 ± 3.9%
